In all, about 580,000 compounds went through this assay and about 6,100 (1.1%) were called active. Inconclusive means that the source gave no clear call. Such entries were picked first, then a sample of the others. Calls follow the shape of the dose curve; as a rule, active = well fitted inhibition curve with a large enough effect; inconclusive = small, poorly fitted or top-dose-only effect, or another doubt; inactive = no such curve, though single readings can be large or run the other way. Where the call is inconclusive, the potency comes from a doubtful curve fit.
The compounds below were run against Polyunsaturated fatty acid lipoxygenase ALOX12 (Homo sapiens) (UniProt P18054) (assay: Primary qHTS assay for inhibitors of human arachidonate 12S-lipoxygenase (ALOX12): Round 2). Details: purified 12hLO, xylenol orange hydroperoxide absorbance; activity change, negative = inhibition: at 108 µM (top of the series) unless noted.
Outline: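 Hydroperoxide product was detected by ferrous iron/xylenol orange as the 573 to 405 nm absorbance ratio. Arachidonic acid at 40 uM (final) was turned over for 30 min at room temperature by 150 nM human 12hLO, pH 7.0 Hepes buffer, after 15 min compound preincubation.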
% is scaled to controls: 0 for no effect and ±100 for the full control effect; potency is read from the fitted curve at half-maximal effect.

Chains of the proteins cited; added tags and fusions are not shown. Lines headed by an entry give the natural chain unless they say otherwise; changes in a name come on top.
UniProt P18054: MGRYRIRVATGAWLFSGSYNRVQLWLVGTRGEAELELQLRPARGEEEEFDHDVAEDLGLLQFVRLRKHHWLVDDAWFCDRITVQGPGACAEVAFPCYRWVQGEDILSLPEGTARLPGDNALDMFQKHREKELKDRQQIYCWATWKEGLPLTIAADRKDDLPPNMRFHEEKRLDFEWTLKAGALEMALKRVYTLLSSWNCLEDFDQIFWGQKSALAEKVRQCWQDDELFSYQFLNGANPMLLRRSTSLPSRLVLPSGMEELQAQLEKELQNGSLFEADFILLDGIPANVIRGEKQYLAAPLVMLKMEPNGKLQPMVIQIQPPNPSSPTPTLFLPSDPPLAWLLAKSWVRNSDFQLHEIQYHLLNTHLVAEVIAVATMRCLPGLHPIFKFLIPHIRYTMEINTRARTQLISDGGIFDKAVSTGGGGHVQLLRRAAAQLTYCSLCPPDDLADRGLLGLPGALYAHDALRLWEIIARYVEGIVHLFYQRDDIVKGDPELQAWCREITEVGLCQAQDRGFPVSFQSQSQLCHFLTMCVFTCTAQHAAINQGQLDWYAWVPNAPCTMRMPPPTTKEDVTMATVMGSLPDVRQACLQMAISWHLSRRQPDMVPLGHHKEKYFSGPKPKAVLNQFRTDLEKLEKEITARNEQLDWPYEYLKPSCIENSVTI

Row | SMILES | Potency | activity change, negative = inhibition
1 | Cc1ccc(-c2noc(CN3CCCC3c3cccn3C)n2)cc1 (stereo unspecified) | inconclusive: 50.1 µM [inhibitor, partial curve, poor fit] | 
2 | COc1cc2c(C(F)(F)F)c(-c3ccc(C#N)cc3)oc(=O)c2cc1OC | inconclusive: 25.1 µM [inhibitor, partial curve, poor fit] | 
3 | COc1ccc(CCNc2nc(-c3cc(OC)c(OC)c(OC)c3)cs2)cc1OC | active: 7.94 µM | 
4 | CN1CCC2(C1)CN(CC1CCOCC1)c1ccc(C(=O)NCCOc3ccccc3)cc12 (stereo unspecified) | inconclusive: 70.8 µM [inhibitor, single point] | 
5 | CNc1nc(Nc2ccc(C)c(Cl)c2)c2cnn(C)c2n1 | inconclusive: 126 µM [inhibitor, single point] | 
6 | Cc1nc(NCCc2nc3ccccc3n2C)cc(C2CC(O)C2)n1 (stereo unspecified) |  | inactive: 139%
7 | C=CCNC(=O)N[C@H]1C[C@@H](C(=O)N[C@@H](Cc2ccc(OC)cc2)C(N)=O)N(C(=O)CC(C)(C)C)C1 |  | inactive: 4.9%
8 | CC(C)CN(CC1CN(C(=O)Cc2cccs2)CCO1)C(=O)c1cccc2ccccc12 (stereo unspecified) | inconclusive: 12.6 µM [inhibitor, full curve, poor fit] | 
9 | Cc1ccc(CNC(=O)c2nc(S(=O)(=O)Cc3ccccc3C)ncc2Cl)cc1 | inconclusive: 35.5 µM [inhibitor, partial curve, poor fit] | 
10 | Cc1[nH]n(-c2ccccc2)c(=O)c1/C=N/NC(=O)c1cccc(F)c1 | active: 35.5 µM | 
11 | CN1C(=O)c2ccccc2Sc2ccc(NC(=O)NCc3ccccc3Br)cc21 |  | inactive: 0%
12 | CC(=O)Nc1ccc(S(=O)(=O)Nc2ccc(S(=O)(=O)N3CCCCCC3)cc2)cc1 | inconclusive: 44.7 µM [inhibitor, partial curve, poor fit] | 
13 | COc1ccc(OCc2nnc(SCC(=O)Nc3ccccc3Cl)o2)cc1 |  | inactive: -6.68%
14 | CCNC(=O)N(C)C[C@H]1N[C@@](C)(C(=O)OC)[C@H]2C(=O)N(C)C(=O)[C@@H]12 | inconclusive: 22.4 µM [inhibitor, partial curve, poor fit] | 
15 | CC(C)C(NC(=O)CSc1cc(Cl)ccc1Cl)c1ccc2c(c1)OCCCO2 (stereo unspecified) | inconclusive: 10 µM [inhibitor, full curve, poor fit] | 
16 | COc1cccc(CN2C(=O)C3(SCC(=O)N3c3ccc(F)cc3)c3ccccc32)c1 (stereo unspecified) |  | inactive: -9.98%
17 | CSc1ccc(C)c(C(=O)Nc2ccc(C)cc2C)c1 | inconclusive: 126 µM [inhibitor, single point] | 
18 | COc1ccccc1N1CCN(S(=O)(=O)c2ccc([N+](=O)[O-])cc2)CC1 |  | inactive: -10.9%
19 | COc1ccc(-c2nc3c(c(SCC(=O)Nc4cc(C)cc(C)c4)n2)Cc2c(CO)cnc(C)c2O3)cc1 |  | inactive: -24.4%
20 | COc1ccccc1N1C(=O)c2cccc3c(C(=O)O)ccc(c23)C1=O |  | inactive: -5.96%
21 | COc1ccc(OC)c(NC(=O)c2cnc(N3CCOCC3)c3ccccc23)c1 |  | inactive: 9.29%
22 | Cc1ccc(O)c(CNc2ccc(S(=O)(=O)Nc3nccs3)cc2)c1 | inconclusive: 56.2 µM [inhibitor, partial curve, poor fit] | 

Row | SMILES | Potency | activity change, negative = inhibition
23 | COc1cc(/C=C/c2nc3ccccc3c(=O)[nH]2)cc(Br)c1O | inconclusive: 100 µM [inhibitor, single point] | 
24 | Brc1cnc2nc(SCc3nc4ccccc4[nH]3)[nH]c2c1 |  | inactive: -13.8%
25 | CC(C)CN1CCN(C(=O)CCC[C@@H]2[C@H]3CCCN4CCC[C@@H](CN2C(=O)c2cccnc2)[C@@H]34)CC1 |  | inactive: 45%
26 | Cc1cc(NC(=O)CN2CCN(C(=O)c3cc(Cl)ccc3F)CC2)no1 | inconclusive: 56.2 µM [inhibitor, partial curve, poor fit] | 
27 | Cc1cc(C(=O)N2CCC(CCOc3ccc(F)cc3)C2)c(C)n1Cc1ccc(F)cc1 (stereo unspecified) | inconclusive: 56.2 µM [inhibitor, partial curve, poor fit] | 
28 | CC(C)c1cccc(NC(=O)c2cccc(CS(C)=O)c2)c1 (stereo unspecified) |  | inactive: 16.5%
29 | N#CC(c1cccc([N+](=O)[O-])c1)C(CC(=O)c1ccccc1)c1ccccc1 (stereo unspecified) |  | inactive: 11.6%
30 | O=C(NCCn1cc(SCC(=O)N2CCCCC2)c2ccccc21)c1cccc(C(F)(F)F)c1 | inconclusive: 39.8 µM [inhibitor, partial curve, poor fit] | 
31 | O=C(NCc1ccccc1)c1cnc(Cc2c[nH]c3ccccc23)c(I)c1 | inconclusive: 56.2 µM [inhibitor, partial curve, poor fit] | 
32 | CCOc1ccc(S(=O)(=O)/C=C2\NCCc3cc(OC)c(OC)cc32)cc1 | inconclusive: 31.6 µM [inhibitor, partial curve, poor fit] | 
33 | CCN(CC)Cc1cc2[nH]c3c4ccc(Cl)cc4ncc3c2cc1OC | inconclusive: 39.8 µM [inhibitor, partial curve, poor fit] | 
34 | CCN(CC)S(=O)(=O)c1ccc(O)c(NC(=O)COc2ccc(S(=O)(=O)N3CCOCC3)cc2)c1 | inconclusive: 39.8 µM [inhibitor, partial curve, poor fit] | 
35 | Cc1ccc(N=C2NN=C(c3c[nH]c(C(=O)N4CCCC4)c3)CS2)c(C)c1 | inconclusive: 28.2 µM [inhibitor, partial curve, poor fit] | 
36 | O=C(NCc1ccccc1)C12CN(Cc3ccccc3)CC1C(c1ccc([N+](=O)[O-])cc1)=NO2 (stereo unspecified) | inconclusive: 12.6 µM [inhibitor, partial curve, poor fit] | 
37 | CCOc1ccc2c(c1)c(C(C)=O)c(C)n2-c1ccccc1C | inconclusive: 44.7 µM [inhibitor, single point] | 
38 | C=CCn1c(SCC(=O)N2CCN(c3ccccc3)CC2)nnc1-c1ccco1 |  | inactive: -28.3%
39 | COc1ccc(C=C2C=C(C(C)(C)C)C(=O)C(C(C)(C)C)=C2)cc1OC | inconclusive: 5.01 µM [inhibitor, partial curve, poor fit] | 
40 | COc1ccc(-c2c(C)c3c(n2C)C(c2ccccc2)Oc2ccccc2-3)cc1 (stereo unspecified) | inconclusive: 79.4 µM [inhibitor, partial curve, poor fit] | 
41 | CCCn1c(CCC(=O)O)ccc1-c1ccc(OC)cc1 | inconclusive: 39.8 µM [inhibitor, partial curve, poor fit] | 
42 | CC1=C[C@@H](CN2CCN(c3ncccn3)CC2)[C@H](C(C)C)C[C@H]1Cc1nnc(-c2ccc(N(C)C)cc2)o1 |  | inactive: -31.3%
43 | CCOC(=O)N1CCN(C(=S)NC(=O)c2cccc(OC)c2)CC1 | inconclusive: 5.01 µM [inhibitor, full curve, poor fit] | 
44 | CN(N=O)C(=O)N[C@H]1C(O)OC(CO)[C@@H](O)[C@H]1O (stereo partly specified) | inconclusive: 17.2 µM [inhibitor, partial curve, poor fit] | 

As entered above.
Entry for `COc1ccc(-c2c(C)c3c(n2C)C(c2ccccc2)Oc2ccccc2-3)cc1` (stereo unspecified) under Potency: inconclusive: 79.4 µM [inhibitor, partial curve, poor fit]
Entry for `CN1C(=O)c2ccccc2Sc2ccc(NC(=O)NCc3ccccc3Br)cc21` under activity change, negative = inhibition: inactive: 0%
Entry for `Brc1cnc2nc(SCc3nc4ccccc4[nH]3)[nH]c2c1` under activity change, negative = inhibition: inactive: -13.8%

Further results follow.

Row | SMILES | Potency | activity change, negative = inhibition
45 | CCOC(=O)C(=CNc1ccc(N2CCCCC2)c(S(=O)(=O)Nc2ccccc2OC)c1)C(=O)OCC | inconclusive: 50.1 µM [inhibitor, partial curve, poor fit] | 
46 | O=C1CCSc2c1cccc2C(=O)Nc1ccc(F)cc1Cl |  | inactive: -7.94%
47 | Cc1ccc(C(=O)/C=C/N(C)C)cn1 |  | inactive: 0%
48 | C=C(C)CN(CC)C(=O)c1nc(-c2cccs2)oc1C | inconclusive: 50.1 µM [inhibitor, partial curve, poor fit] | 
49 | S=C(Nc1cccc(Cl)c1)Nc1ccccc1Oc1ccccc1 | inconclusive: 39.8 µM [inhibitor, partial curve, poor fit] | 
50 | Clc1ccc(-c2cc3c(cn2)CN(Cc2ccncc2)CCN3)cc1 | inconclusive: 100 µM [inhibitor, partial curve] | 
51 | CCCNc1nc2c(c(=O)n(C)c(=O)n2C)n1Cc1ccc(Br)cc1 | inconclusive: 89.1 µM [inhibitor, partial curve, poor fit] | 
52 | COC(=O)c1ccc(CN2CCC(n3nccc3NC(=O)C3CCCC3)CC2)cc1 |  | inactive: 3.74%
53 | Cc1ccccc1-c1nc(NCc2cccs2)c2ccccc2n1 | inconclusive: 1.78 µM [inhibitor, full curve, poor fit] | 
54 | Cn1c(NCc2ccccc2O)nc2ccccc21 |  | inactive: -16%
55 | COc1cccc(CNC(C)C(=O)Nc2ccc3c(c2)OCCO3)c1 (stereo unspecified) | inconclusive: 0.562 µM [inhibitor, full curve, poor fit] | 
56 | CC(C)C[C@@H]1N[C@H](C(=O)O)Cc2cn(CC3CCC3)c3cccc1c23 | inconclusive: 20 µM [inhibitor, full curve, poor fit] | 
57 | COc1ccc(-n2c(=O)cnc3cnc(N(C)C)nc32)cc1 | inconclusive: 79.4 µM [inhibitor, partial curve, poor fit] | 
58 | O=c1[nH]c(=S)[nH]c2sccc12 | active: 8.91 µM | 
59 | COc1cccc(/C=C/C(=O)c2nc3ccccc3s2)c1OC(F)F | inconclusive: 39.8 µM [inhibitor, partial curve, poor fit] | 
60 | Cc1nc(-c2ccc(C(=O)Nc3cccc(F)c3)cc2)cs1 | inconclusive: 35.5 µM [inhibitor, single point] | 
61 | COCCN1C(=O)c2ccccc2C(C(=O)NCc2ccc(Cl)cc2)C12CCCCC2 (stereo unspecified) |  | inactive: 19%
62 | CC(=O)c1cccc(OCC(O)CNCC2COc3ccccc3O2)c1 (stereo unspecified) | inconclusive: 15.8 µM [inhibitor, full curve, poor fit] | 
63 | CN1CCN(C(=O)CC2CCCN(c3cnn(C)c(=O)c3)C2)CC1 (stereo unspecified) | inconclusive: 8.91 µM [inhibitor, full curve] | 
64 | CN(C)c1nc(N/N=C/c2ccccc2O)nc(Nc2ccc(F)cc2)n1 |  | inactive: -10.9%
65 | Cc1ccc(NC(=O)CSc2nc3ccccc3c(=O)n2CCn2cc(Cl)cn2)cc1 |  | inactive: 5.23%
66 | COc1ccc(NC(=O)c2nnc(COCC(=O)NC3CCCCC3)s2)cc1 | inconclusive: 0.355 µM [inhibitor, full curve, poor fit] | 
